Assay results reported in publication PMC2816667.
Construct, isoform or probe ends are uncertain for at least one entry.

What was measured:
[1] = test system: GST-EWS-Oct-4 (human); experiment: EMSA; conditions: 10 mM Tris-HCl pH 8.0, 40 mM KCl, 6% glycerol, 1 mM DTT, 0.05% NP-40, 10 ng/ul poly(dI-dC), 30 min at 4 C; 4% PAGE in 0.5x TBE at 4 C; protein 0.15-1.35 ug; recombinant protein; protein details: GST; label: 32P 5' end label
[2] = test system: GST-EWS-Oct-4B (human); experiment: EMSA; conditions: 10 mM Tris-HCl pH 8.0, 40 mM KCl, 6% glycerol, 1 mM DTT, 0.05% NP-40, 10 ng/ul poly(dI-dC), 30 min at 4 C; 4% PAGE in 0.5x TBE at 4 C; protein 0.15-1.35 ug; recombinant protein; protein details: GST; label: 32P 5' end label

## GGCACTTCACTAGCATAACAATGAGGGCTC (double strand) [Oct-4 probe]
[1]
  binding result: binds
[2]
  binding result: binds
